Two molecules from article PMC2743825 can be followed below.

By UniProt entry, the sequences of proteins in these tests, tags left out.
UniProt P05205: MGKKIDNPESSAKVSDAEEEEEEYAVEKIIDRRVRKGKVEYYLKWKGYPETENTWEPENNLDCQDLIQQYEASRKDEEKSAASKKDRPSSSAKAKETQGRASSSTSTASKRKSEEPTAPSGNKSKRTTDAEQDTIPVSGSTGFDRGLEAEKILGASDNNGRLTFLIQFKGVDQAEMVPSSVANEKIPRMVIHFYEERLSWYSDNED

Results are given in words; binding and its absence hold for the method and conditions named. For some assays here: In cells and extracts the contact can be indirect. Some entries that bind do so weakly or less than the wild type.

In experiment [1] the target is Heterochromatin Protein 1 (HP1a) (Drosophila melanogaster) (UniProt P05205). In words: co-IP; immunoprecipitation with monoclonal C1A9 anti-HP1a antibody (50 µg for 1 ml of hnRNP extract), western blot of the precipitate.
For experiment [2], the target named is FLAG-tagged HP1a (Drosophila melanogaster) (UniProt P05205). Kind of experiment: native gel or EMSA; anti-FLAG immunopurified fractions of nuclear lysates of FLAG-HP1a transfected S2 cells resolved by 6% native-PAGE, before and after RNAse A treatment; western blot with anti-FLAG, anti-HRB87F, anti-DDP1, anti-PEP. On the technique in general: In EMSA bound probe runs differently from free probe, usually more slowly.

Experiment [3] shares this target. Kind of experiment: co-IP; anti-FLAG immunopurification (protein G Dynabeads, elution with 3x FLAG peptide) from total nuclear lysate (sonicated, soluble chromatin fraction) of transfected S2 cells; lysis buffer 50 mM Tris-HCl, 150 mM NaCl, 0.5% NP40; western blot.
Experiment [4] has the same target. Kind of experiment: condition: only in the soluble nuclear extract (nucleoplasmic fraction), not in the total nuclear lysate; co-IP; anti-FLAG immunopurification (protein G Dynabeads, elution with 3x FLAG peptide) from soluble nuclear extract (nucleoplasmic fraction) of transfected S2 cells; western blot. In general terms: A western blot detects proteins with antibodies after separation by electrophoresis.

B1: PEP (Peptide on Ecdysone Puffs) (protein, UniProt P41073 1-716)
chain: MVSVKVNGNPQNRLVNNAKVNGNMAFRGNQNRNRNFGGGNNNYGGPMGANRMGGMNMSPWESQNPGGGQFGNNMRQGGGQMNAQAINLANNLLNNLFRNQNPPSLLDLPRGGGGMGNRNQRGGPMVSRGGGAGNRLNNRRGQGGGFQNRGATGSGPKPPPKQGGGGIRKQNAFDRAKKLLAKNANQNKKKEPTPGEKKIESPTKESPYASVPNDMFYCHLCKKHMWDANSFENHIKGRTHLMMREGIEESYRLKANMIRQEAKIAEQLKSIEFDRLKRMGKSKQRQLDYCTMCDLNFHGHISTHRKSEGHLQLKKFLHPKCIECNKEFATRIDYDTHLLSAEHLKKAAENNTKVGERKRQTLPISTEEEETRDLRLPQKRKKKPVKKEGEAADGEAKKEGAGDGEGAEGDEAEGEEAKEGEEAADETKEGDELNESQEEEEVALPVDPEDCILDFNDGDEIPSEVDTRLPKYNWQRAVGPGLISKLECYECSVCSKFFDTEVTAEIHSRTATHHRNFLKFINEKSSDTKIAQKRAAAALEENERKKRKVEEAEAPAAEGAAEETTEGAEGELYDPSEATGDDEDVEMVDDNAEGEGEGEGDEEAEAEVEEDGAGQDNGEEEMEAQEEEGQEGEQEPEPEPAPVQTPAPAEPAPPAKTPAKTPTKAAAPAAVASPAAAATSADASPSPAKKATPARAAAGAKATPQRQRARGRYNRY
Turning to B1, the binding entry in experiment [1] is recorded as “binds”; in experiment [2], “binds”; in experiment [3] it was “binds”; in experiment [4], “no binding”.

B2: HRB87F (protein, UniProt P48810 1-385)
chain: MAEQNDSNGNYDDGEEITEPEQLRKLFIGGLDYRTTDDGLKAHFEKWGNIVDVVVMKDPKTKRSRGFGFITYSQSYMIDNAQNARPHKIDGRTVEPKRAVPRQEIDSPNAGATVKKLFVGGLRDDHDEECLREYFKDFGQIVSVNIVSDKDTGKKRGFAFIEFDDYDPVDKIILQKTHSIKNKTLDVKKAIAKQDMDRQGGGGGRGGPRAGGRGGQGDRGQGGGGWGGQNRQNGGGNWGGAGGGGGFGNSGGNFGGGQGGGSGGWNQQGGSGGGPWNNQGGGNGGWNGGGGGGYGGGNSNGSWGGNGGGGGGGGGFGNEYQQSYGGGPQRNSNFGNNRPAPYSQGGGGGGFNKGNQGGGQGFAGNNYNTGGGGQGGNMGGGNRRY
For B2, the binding result in experiment [1] was “binds”; in experiment [2] it was “binds”; in experiment [3], “binds”; in experiment [4], “no binding”.
